Source: PubChem BioAssay AID1159506 (NCATS, 2015).

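Luminescence from an EWS-FLI1 target-promoter (NR0B1) reporter, set against a CMV-promoter reporter, two days after silencing single genes in TC32 Ewing sarcoma cells.
Each siRNA was applied at 20 nM.
A z-score of the log NR0B1-over-CMV signal, less the median of siRNAs with the same seed; more negative means a stronger specific loss of the NR0B1 reporter.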

The strongest results of the screen are mostly left out here.
Sequences are the guide (antisense) strand, without overhang.

UUAAAAUGCACAUGGAUAC against NT5E read seed-corrected z-score 0.09262. Result for UAUCUUGCAAAGUCUAAAG against KIAA1468 was seed-corrected z-score -1.587. For UAAGGUCUCUACGUGUGCG against PNN the result was seed-corrected z-score -0.6353. UCAAGACUAGUUACCAUUC against DSCC1 gave seed-corrected z-score 0.4978. For UCUUCUUCAGGUAUCUCUC against DNHD1 the result was seed-corrected z-score 0.2272. With AGCGGAACAACAUGUUCUC against SSPO the assay gave seed-corrected z-score 0.5575.

For UCAUAUCAUAGUAAGCAUG against KIF1BP the result was seed-corrected z-score 0.1972. With UUUGAUAAUAUCAACGUAG against SULT1C3 the assay gave seed-corrected z-score 0.1709. For UACUGGGCACCUCUAAUGC against IER2 the result was seed-corrected z-score 0.5142. For UCCGUUUUCGUCGUGAUAG against ZMYND8 the result was seed-corrected z-score -0.2138. Result for UCAUGACUAAAGGUGUUCC against ZNF790 was seed-corrected z-score -0.224. Result for AGCAUGUCCACAUUCUUUG against CXCL16 was seed-corrected z-score -0.1379.

Result for AAUUGUCAUAGUAAGUGCC against EZH2 was seed-corrected z-score 0.06138. For UCUGACAAAAUAGUUAGCC against EPHX4 the result was seed-corrected z-score 0.463. UUUGUUGACGGGUACCAGC against ABCC10 read seed-corrected z-score 0.8067. Result for UAAUUGACACUCACGAUGC against SIM2 was seed-corrected z-score 0.5114. UUCCGUUUCAGUGAACUCU against CD40 gave seed-corrected z-score 0.1714. UACUCGCACAUAGAAUCGC against CABIN1 gave seed-corrected z-score -0.6239.

UUUCAUAAGUUGGAGUUUG against CD34 read seed-corrected z-score 0.5878. UCAGCGAUUUCUUCCAAGC against CA9 read seed-corrected z-score -0.5974. For UUGGGAUUCUUCCAAGUCC against KRT42P the result was seed-corrected z-score -0.1808. Result for UCUUGAAGAACAGCGCGUG against TMEM259 was seed-corrected z-score 0.4069. With AAACGGAAUAUUCUCCAUC against MIF4GD the assay gave seed-corrected z-score 0.635. UGUCUGAUAAAGCAGCCGC against FANCB read seed-corrected z-score -0.4539.

Result for UUCGUAACCCUAAUAAUAC against PHF21B was seed-corrected z-score 0.01076. With UCAACUAUAUCCUUCAUAC against UGT1A6 the assay gave seed-corrected z-score 0.2661. UGGUGUAAUACAUGGACUG against IPO11 read seed-corrected z-score -0.9802. AUCAAUGCAAUUAAAAGGC against ZNF471 gave seed-corrected z-score 0.8256. For UACGUUUUCCAGCUCUAUC against AGGF1 the result was seed-corrected z-score -0.119. UAAGAUAUGUGGGCAGGGU against PRSS22 read seed-corrected z-score -1.184.

AUUGUGCCUGUCAUCAUUC against TIGIT gave seed-corrected z-score -1.33. Result for UUUUUCACACUCGAGACAC against ZNF322P1 was seed-corrected z-score -0.2699. With UCAGGACCAUGCACUGUCU against GLI1 the assay gave seed-corrected z-score 0.4645. With UUCUGUAACCGUUUGUGCU against CCDC13 the assay gave seed-corrected z-score -0.9038. With AUAGAUUAUGGGAUUGACC against OR52K2 the assay gave seed-corrected z-score 0.1466.

The last 2 entries again:

Sequence	gene	seed-corrected z-score
UUCUGUAACCGUUUGUGCU	CCDC13	-0.9038
AUAGAUUAUGGGAUUGACC	OR52K2	0.1466